Reference: PubChem BioAssay AID743255 (National Center for Advancing Translational Sciences (NCATS), 2014)
About 910 (0.23%) of roughly 390,000 compounds were called active. Inconclusive results, whose numbers are uncertain, are shown with a selection of clear calls. The call rests on the fitted dose curve; in most records, active means well fitted inhibition curve with a large enough effect; inconclusive means small, poorly fitted or top-dose-only effect; inactive means no such curve, though single readings can be large or run the other way. Potencies of inconclusive entries are doubtful fits and often do not repeat.

Protein sequences, listed by entry. Tags and fused reporters are not part of them. Lines headed by an entry give the natural chain unless they say otherwise; changes in a name come on top.
UniProt O94782: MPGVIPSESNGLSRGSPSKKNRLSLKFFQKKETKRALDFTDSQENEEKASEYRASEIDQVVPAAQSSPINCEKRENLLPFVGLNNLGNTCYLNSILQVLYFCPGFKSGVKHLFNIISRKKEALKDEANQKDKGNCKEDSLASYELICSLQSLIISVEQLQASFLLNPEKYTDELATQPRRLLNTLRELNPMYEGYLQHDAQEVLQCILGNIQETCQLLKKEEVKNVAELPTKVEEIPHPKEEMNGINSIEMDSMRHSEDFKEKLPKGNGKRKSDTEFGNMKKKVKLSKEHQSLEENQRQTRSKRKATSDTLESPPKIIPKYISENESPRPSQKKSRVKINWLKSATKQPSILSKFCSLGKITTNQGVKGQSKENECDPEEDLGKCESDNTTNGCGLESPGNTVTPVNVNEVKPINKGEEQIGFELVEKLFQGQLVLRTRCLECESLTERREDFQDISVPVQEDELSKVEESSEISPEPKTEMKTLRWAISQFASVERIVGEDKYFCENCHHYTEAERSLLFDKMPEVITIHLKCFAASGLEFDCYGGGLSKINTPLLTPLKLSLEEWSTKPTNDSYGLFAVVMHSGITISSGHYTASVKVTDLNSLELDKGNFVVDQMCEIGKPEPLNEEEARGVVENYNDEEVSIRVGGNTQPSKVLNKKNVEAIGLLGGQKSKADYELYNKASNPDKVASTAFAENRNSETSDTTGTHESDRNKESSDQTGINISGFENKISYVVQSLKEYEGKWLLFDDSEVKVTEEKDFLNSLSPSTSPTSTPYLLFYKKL

What follows are compounds tested against Ubiquitin carboxyl-terminal hydrolase 1 (Homo sapiens) (UniProt O94782) (assay: Inhibitors of USP1/UAF1: Primary Screen). Conditions: recombinant USP1/UAF1, Ub-Rhodamine cleavage fluorescence; series mostly up to 57.1 µM.
Procedure, shortened: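 High-throughput fluorogenic screen: 1nM USP1/UAF1 complex, Ub-Rho substrate 150nM final, 50mM HEPES pH 7.8 with 0.5mM EDTA, 0.1 mg/ml BSA, 1mM TCEP and 0.01% Tween-20.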
Further: nearly all actives have a fitted effect of over 60% in size.
Potency means the concentration at half of the fitted maximal effect.

Potency, inactive:
CC1(CC(=O)Nc2ccccc2)NC(=S)N(c2ccccc2)N1 (centres undefined)
O=C(CSc1ncn[nH]1)N1CCOCC1
O=C(NCCc1ccc(F)cc1)Nc1ccc2c(c1)OCO2
COc1ccc(C(CNC(=O)C(C)Sc2ccccc2)N2CCOCC2)cc1 (centres undefined)
N/C(Cc1nc(-c2ccc(Br)cc2)cs1)=N\O
NC(=S)N/N=C/c1coc2ccc(Br)cc2c1=O
O=C(O)c1cccc(N/N=C/c2ccc(-c3ccccc3)cc2)c1
O=C(NCCCc1ccncc1)C1CCC(=O)N(CCc2cccc(F)c2)C1 (centres undefined)
Cc1nc(C)c(C(=O)Nc2nc3c(C)cccc3s2)o1
COc1ccc(/C=N/Nc2ccc(C(=O)O)cc2)cc1Br
Cc1ccc(N2CCN(C(=O)N3CCOCC3)CC2)c(C)c1
COc1ccc(CNC(=O)CCC2N=C3c4ccccc4N=C(SCC(=O)NCCc4ccc(OC)c(OC)c4)N3C2=O)cc1 (centres undefined)
O=C(O)c1ccc(/C=C2\SC(=S)N(Nc3ccccc3)C2=O)cc1
S=C(NCCCN1CCOCC1)N1CCN(c2nc(-c3ccc(Cl)cc3)cs2)CC1
Cc1ccc(C(=O)N/C(=C/c2ccco2)C(=O)O)cc1
CC(C)CCN(C(=O)c1ccccn1)c1c(N)n(Cc2ccccc2)c(=O)[nH]c1=O

Potency, active:
NC(=O)c1ccc(N=Cc2ccc([N+](=O)[O-])s2)cc1 10 µM

Potency, inconclusive:
CC(C)OC(=O)CC(NC(=O)OC(C)(C)C)c1ccccc1 (centres undefined) 44.7 µM [inhibitor, partial curve]
CCOC(=O)Cn1nc(N2CCN(c3ccc(F)cc3)CC2)ccc1=O 0.631 µM [inhibitor, full curve]
COC(=O)C1=C(c2ccccc2)c2ccccc2S(=O)(=O)N1CC(=O)Nc1cc(C)ccc1C 0.562 µM [inhibitor, full curve, poor fit]
COc1ccc(-c2nc3c(C#N)c[nH]n3c2NC2CCCCC2)cc1 35.5 µM [inhibitor, single point]
CCCc1cc(NCCCO)n2c(nc3ccccc32)c1C#N 35.5 µM [inhibitor, single point]
CCC12CN3CC(C)(CN(C1)C3c1c(C)[nH]c3ccccc13)C2=O (centres undefined) 44.7 µM [inhibitor, partial curve, poor fit]
Cc1ccc(NC(=O)Cc2nnc(SCC(=O)c3ccc(Br)cc3)n2C)cc1 35.5 µM [inhibitor, partial curve, poor fit]
CC(=O)c1cccc(NC(=O)c2ccc3c(c2)CCN3S(=O)(=O)c2ccccc2)c1 39.8 µM [inhibitor, partial curve, poor fit]
COc1cccc(C2=CC(c3ccccc3F)n3ncc(C(=O)Nc4ccc(F)cc4)c3N2)c1 (centres undefined) 50.1 µM [inhibitor, single point]
Cc1ccc(Nc2c(-c3cccnc3)nc3ccc(C)cn23)cc1 2.24 µM [inhibitor, partial curve]
N#C/C(=C(/O)c1ccc(-c2cccc([N+](=O)[O-])c2)o1)c1nc2ccccc2s1 44.7 µM [inhibitor, partial curve]
CCN(CC)S(=O)(=O)c1cccc(-n2c(O)c(C=Nc3ccccc3C(=O)O)c3ccccc3c2=O)c1 31.6 µM [inhibitor, partial curve]
Cc1cccc(Nc2c(-c3ccc(N4CCOCC4)cc3)nc3ncccn23)c1 0.891 µM [inhibitor, full curve]
CCOC(=O)c1c(-c2ccc(C)cc2)csc1NC(=O)/C(C#N)=C/c1ccc(O)c(OC)c1 31.6 µM [inhibitor, partial curve, poor fit]
Nc1nccc(SCc2ccc(Cl)cc2Cl)n1 0.891 µM [inhibitor, full curve, poor fit]
COc1cc2c(cc1NC(=O)c1ccc(C(C)(C)C)cc1)CCCC2 15.8 µM [inhibitor, partial curve]
O=C(NNc1nc2c(F)cccc2s1)c1cc(=O)c2ccccc2o1 31.6 µM [inhibitor, partial curve]
Cc1nc(C(F)(F)F)ccc1C(=O)N1CCCCC1 5.62 µM [inhibitor, full curve, poor fit]
CCc1ccc(CNC(=O)c2ccc3c(c2)c(C)c(C)n3Cc2ccccc2)cc1 3.55 µM [inhibitor, full curve, poor fit]
Cc1ccc(C(=O)NC(=S)Nc2ccccc2N2CCCC2)cc1[N+](=O)[O-] 15.8 µM [inhibitor, partial curve]
CCOc1ccc(N(CC(=O)Nc2ccccc2OCC)S(=O)(=O)c2c(C)noc2C)cc1 44.7 µM [inhibitor, partial curve]
Cc1ccc(N(C)C(=O)Cn2ncc3c([nH]c4ccccc43)c2=O)cc1C 5.01 µM [inhibitor, partial curve]
CCC1Sc2ccccc2N(CC(=O)NC2CCCC2)C1=O (centres undefined) 28.2 µM [inhibitor, single point]
CCCOc1ccc(NC(=O)CC2C(=O)N(c3cccc(OC)c3)C(=O)N2CCc2ccncc2)cc1 (centres undefined) 6.31 µM [inhibitor, single point]
O=C(CN(C(=O)CCC(=O)Nc1nccs1)c1ccccc1F)NCc1ccccc1 28.2 µM [inhibitor, single point]
CC1(C)CCC/C(=C\c2ccccc2)C1=O 0.251 µM [inhibitor, full curve, poor fit]
COc1ccc(C(CCN2CCCC2)c2c(OC)cc(OC)c3c(-c4ccccc4)cc(=O)oc23)cc1 (centres undefined) 70.8 µM [inhibitor, partial curve, poor fit]
Cc1ccc2c(c1)N(CCC(=O)NC1CCCCC1)C(=O)CO2 50.1 µM [inhibitor, partial curve, poor fit]
CC1CCCCN1Cc1nc2c(c(=O)n(C)c(=O)n2C)n1Cc1ccc(Br)cc1 (centres undefined) 0.0891 µM [inhibitor, full curve, poor fit]
COc1cccc(NC(=O)CSc2cc(C)c3ccccc3n2)c1 5.62 µM [inhibitor, partial curve]
Cc1nc(-n2nc(C)c(Cc3ccc(Cl)cc3)c2C)sc1C(=O)N1CCC(C)CC1 3.98 µM [inhibitor, partial curve]
CC(N=Cc1cccc(O)c1O)c1ccccc1 (centres undefined) 39.8 µM [inhibitor, partial curve, poor fit]
CCOC(=O)c1ccc(CN(Cc2ccc(F)cc2)S(=O)(=O)c2ccc(F)c(C(=O)Nc3cc(Cl)ccc3OC)c2)cc1 0.251 µM [inhibitor, full curve, poor fit]
Cc1ccc(C)c(NC(=O)CSc2nc3nc(-c4cccs4)cc(C(F)(F)F)c3c(=O)[nH]2)c1 7.94 µM [inhibitor, partial curve]
COC(=O)c1ccc(C23CC4(C2)[C@H](CN(Cc2ccc(-c5ccccc5)cc2)[C@@H]4c2ccccc2)C3c2ccc(C(F)(F)F)cc2)cc1 (some centres undefined) 44.7 µM [inhibitor, partial curve, poor fit]
CCN(CC)c1ccc(/C=C(\C#N)c2ccccn2)cc1 31.6 µM [inhibitor, single point]
COc1ccc(-n2c(SCC(=O)O)nnc2-c2ccc(NC(=O)c3ccccc3)cc2)cc1 44.7 µM [inhibitor, partial curve, poor fit]
C[C@]12CCC[C@H](O1)[C@H]([C@@H](O)c1ccccc1)O2 6.31 µM [inhibitor, single point]
Cc1cccc(CNC(=O)c2cnc3c(-c4cccc(C)c4)c(C)nn3c2C)c1 0.447 µM [inhibitor, full curve, poor fit]
COc1cccc(CNC(=O)c2sc3nc[nH]c(=O)c3c2C)c1 126 µM [inhibitor, partial curve, poor fit]
COc1cc(SC)ccc1C(=O)N1CCN(Cc2ccc3c(c2)OCO3)CC1 44.7 µM [inhibitor, partial curve]
Cc1cccn2c(=O)c3cc(C(=O)NCc4ccc(F)cc4)c(=N)n(CCCN4CCOCC4)c3nc12 22.4 µM [inhibitor, partial curve, poor fit]
c1nc(N2CCCCC2)c2[nH]cnc2n1 7.08 µM [inhibitor, partial curve, poor fit]
O=[N+]([O-])c1cnccc1NC1CCCCC1 7.08 µM [inhibitor, partial curve, poor fit]
Cc1cccc(C)c1OCCn1c(CCNC(=O)C2CCCCC2)nc2ccccc21 5.01 µM [inhibitor, full curve, poor fit]
CCOc1ccc(NC(=O)c2cc(-c3ccc(C)c(F)c3)on2)c([N+](=O)[O-])c1 14.1 µM [inhibitor, partial curve]
COc1ccc(-c2sc3ccc(OC)cc3c2C#CCCO)cc1 6.31 µM [inhibitor, partial curve]

2 compounds drawn at random from the list so far:
Potency, inconclusive:
CC(=O)c1cccc(NC(=O)c2ccc3c(c2)CCN3S(=O)(=O)c2ccccc2)c1 39.8 µM [inhibitor, partial curve, poor fit]
Cc1nc(-n2nc(C)c(Cc3ccc(Cl)cc3)c2C)sc1C(=O)N1CCC(C)CC1 3.98 µM [inhibitor, partial curve]
